# PubChem BioAssay AID1259405, NCATS – 2018
# Assay: 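Mouse-designed siRNAs used to find CHO productivity engineering targets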 (primary screen)
# Cells: Chinese hamster CHO-K1 ovary cells with stable secreted eGFP expression
# Knock-down reagent: single siRNA against mouse genes, 0.8 pmol siRNA per well (2 µl of 400 nM stock)
# Time to read-out: 3 days
# Read-out: 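Percent of the per-plate non-targeting control median for intracellular GFP per well by laser scanning cytometry and for cell viability by ATP luminescence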
# Reading the numbers: GFP, % of control: higher = more GFP per well, higher productivity; viability (ATP), % of control: higher = more viable cells (more ATP)
# Hit rule: 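a knock-down is called active if GFP reaches 120% or more of non-targeting control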
# In all, the deposit lists about 50,000 reagents; below is an unselected part. In the full data, about 4,000 (8%) got an active call. 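Mouse siRNA library applied to hamster cells; one well for each siRNA.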 Reagents against one gene are numbered here.
target gene,siRNA no.,"GFP, % of control","viability (ATP), % of control",activity call
4921524J17Rik,1,99.6,95.1,inactive
4921524J17Rik,2,71,53.2,inactive
4921524J17Rik,3,87.6,108,inactive
Txnip,1,73.3,51.9,inactive
Txnip,2,92.2,67,inactive
Txnip,3,96,94.1,inactive
Per3,1,125,42,active
Per3,2,42,51.9,inactive
Per3,3,73.2,101,inactive
Tmem91,1,73.7,44.1,inactive
Tmem91,2,92.8,105,inactive
Tmem91,3,79.1,87.8,inactive
Map3k20,1,88.1,81.6,inactive
Vmn1r93,1,60.8,38.5,inactive
Vmn1r93,2,70.6,75.6,inactive
Vmn1r93,3,50.5,52.3,inactive
Surf1,1,40.5,46.8,inactive
Surf1,2,93.6,70.6,inactive
Surf1,3,59.4,93.7,inactive
Pard6g,1,70.3,68.8,inactive
Pard6g,2,99.4,91.6,inactive
Pard6g,3,102,126,inactive
Trim13,1,92.8,85.8,inactive
Trim13,2,49.1,67.8,inactive
Trim13,3,65.5,48.5,inactive
Bahcc1,1,81.6,92.4,inactive
Bahcc1,2,116,92.7,inactive
Bahcc1,3,75.8,77.1,inactive
Tarbp2,1,97.8,45.1,inactive
Tarbp2,2,78.2,63.5,inactive
Tarbp2,3,60.9,65.6,inactive
Ptprcap,1,104,105,inactive
Ptprcap,2,56.6,30.7,inactive
Msx3,1,64.1,83.9,inactive
Msx3,2,57.8,68.5,inactive
Msx3,3,41.2,63.5,inactive
Pcbd1,1,49,47.9,inactive
Pcbd1,2,67.8,73.9,inactive
Leng9,1,40.1,28.2,inactive
Leng9,2,81.8,83.8,inactive
Leng9,3,72.4,80.5,inactive
Tprg1l,1,86.1,88.8,inactive
Tprg1l,2,71.3,74,inactive
Tprg1l,3,72.2,45.6,inactive
Higd2a,1,82.2,85.2,inactive
Higd2a,2,109,75.7,inactive
Higd2a,3,51.8,60,inactive
Zhx2,1,69.5,76.7,inactive
Zhx2,2,75.2,74.6,inactive
Csnk1a1,1,84.3,94.4,inactive
Csnk1a1,2,18.5,18.5,inactive
Csnk1a1,3,90,106,inactive
Serpinb6c,1,70.6,52.4,inactive
Serpinb6c,2,79.1,65.2,inactive
Serpinb6c,3,106,103,inactive
Or5aq1b,1,65.4,35.2,inactive
Or5aq1b,2,49.2,75.6,inactive
Or5aq1b,3,23.1,34.2,inactive
Serpina5,1,76.7,106,inactive
Serpina5,2,79.2,97.3,inactive
Serpina5,3,60.3,73.6,inactive
Or5g29,1,114,84,inactive
Or5g29,2,50.3,72.5,inactive
Or5g29,3,69.5,61.2,inactive
Agk,1,122,102,active
Or14j7,1,72.3,65,inactive
Or14j7,2,54.9,68.3,inactive
Or14j7,3,67.4,77.5,inactive
Arhgap15,1,124,92.9,active
Arhgap15,2,67.5,86.6,inactive
Arhgap15,3,59.6,38.9,inactive
Sphk2,1,60.8,73.6,inactive
Thap12,1,76.1,73.1,inactive
Thap12,2,106,85.5,inactive
Atp6v0a1,1,89.9,90,inactive
Atp6v0a1,2,57.9,57.2,inactive
Atp6v0a1,3,105,93,inactive
Cdkn2aip,1,121,100,active
Cdkn2aip,2,88.3,87.8,inactive
Cdkn2aip,3,90.9,69.9,inactive
Ptgr3,1,79.4,85.1,inactive
Ptgr3,2,64.8,50.4,inactive
Ptgr3,3,57.7,63.2,inactive
Hbp1,1,77,72.8,inactive
Hbp1,2,195,81,active
Hbp1,3,85.8,60,inactive

In a second layout: results already given.
{"target gene": "Tarbp2", "siRNA no.": 3, "GFP, % of control": 60.9, "viability (ATP), % of control": 65.6, "activity call": "inactive"}
{"target gene": "Ptprcap", "siRNA no.": 1, "GFP, % of control": 104, "viability (ATP), % of control": 105, "activity call": "inactive"}
{"target gene": "Ptprcap", "siRNA no.": 2, "GFP, % of control": 56.6, "viability (ATP), % of control": 30.7, "activity call": "inactive"}
{"target gene": "Msx3", "siRNA no.": 1, "GFP, % of control": 64.1, "viability (ATP), % of control": 83.9, "activity call": "inactive"}
{"target gene": "Msx3", "siRNA no.": 2, "GFP, % of control": 57.8, "viability (ATP), % of control": 68.5, "activity call": "inactive"}
